# Primary screen of a compound library

Sequences of proteins named here, by UniProt entry; tags and fusion partners are left off.
UniProt P9WFT3, whole entry: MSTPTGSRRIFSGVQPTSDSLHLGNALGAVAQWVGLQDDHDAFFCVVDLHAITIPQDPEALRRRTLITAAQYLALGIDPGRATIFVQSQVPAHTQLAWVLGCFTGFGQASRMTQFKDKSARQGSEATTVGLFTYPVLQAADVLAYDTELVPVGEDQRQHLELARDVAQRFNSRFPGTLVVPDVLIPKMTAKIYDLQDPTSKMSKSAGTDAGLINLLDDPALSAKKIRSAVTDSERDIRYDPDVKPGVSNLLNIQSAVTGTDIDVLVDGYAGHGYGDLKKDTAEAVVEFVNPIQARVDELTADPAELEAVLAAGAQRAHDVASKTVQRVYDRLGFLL
UniProt I6X8D2, whole entry: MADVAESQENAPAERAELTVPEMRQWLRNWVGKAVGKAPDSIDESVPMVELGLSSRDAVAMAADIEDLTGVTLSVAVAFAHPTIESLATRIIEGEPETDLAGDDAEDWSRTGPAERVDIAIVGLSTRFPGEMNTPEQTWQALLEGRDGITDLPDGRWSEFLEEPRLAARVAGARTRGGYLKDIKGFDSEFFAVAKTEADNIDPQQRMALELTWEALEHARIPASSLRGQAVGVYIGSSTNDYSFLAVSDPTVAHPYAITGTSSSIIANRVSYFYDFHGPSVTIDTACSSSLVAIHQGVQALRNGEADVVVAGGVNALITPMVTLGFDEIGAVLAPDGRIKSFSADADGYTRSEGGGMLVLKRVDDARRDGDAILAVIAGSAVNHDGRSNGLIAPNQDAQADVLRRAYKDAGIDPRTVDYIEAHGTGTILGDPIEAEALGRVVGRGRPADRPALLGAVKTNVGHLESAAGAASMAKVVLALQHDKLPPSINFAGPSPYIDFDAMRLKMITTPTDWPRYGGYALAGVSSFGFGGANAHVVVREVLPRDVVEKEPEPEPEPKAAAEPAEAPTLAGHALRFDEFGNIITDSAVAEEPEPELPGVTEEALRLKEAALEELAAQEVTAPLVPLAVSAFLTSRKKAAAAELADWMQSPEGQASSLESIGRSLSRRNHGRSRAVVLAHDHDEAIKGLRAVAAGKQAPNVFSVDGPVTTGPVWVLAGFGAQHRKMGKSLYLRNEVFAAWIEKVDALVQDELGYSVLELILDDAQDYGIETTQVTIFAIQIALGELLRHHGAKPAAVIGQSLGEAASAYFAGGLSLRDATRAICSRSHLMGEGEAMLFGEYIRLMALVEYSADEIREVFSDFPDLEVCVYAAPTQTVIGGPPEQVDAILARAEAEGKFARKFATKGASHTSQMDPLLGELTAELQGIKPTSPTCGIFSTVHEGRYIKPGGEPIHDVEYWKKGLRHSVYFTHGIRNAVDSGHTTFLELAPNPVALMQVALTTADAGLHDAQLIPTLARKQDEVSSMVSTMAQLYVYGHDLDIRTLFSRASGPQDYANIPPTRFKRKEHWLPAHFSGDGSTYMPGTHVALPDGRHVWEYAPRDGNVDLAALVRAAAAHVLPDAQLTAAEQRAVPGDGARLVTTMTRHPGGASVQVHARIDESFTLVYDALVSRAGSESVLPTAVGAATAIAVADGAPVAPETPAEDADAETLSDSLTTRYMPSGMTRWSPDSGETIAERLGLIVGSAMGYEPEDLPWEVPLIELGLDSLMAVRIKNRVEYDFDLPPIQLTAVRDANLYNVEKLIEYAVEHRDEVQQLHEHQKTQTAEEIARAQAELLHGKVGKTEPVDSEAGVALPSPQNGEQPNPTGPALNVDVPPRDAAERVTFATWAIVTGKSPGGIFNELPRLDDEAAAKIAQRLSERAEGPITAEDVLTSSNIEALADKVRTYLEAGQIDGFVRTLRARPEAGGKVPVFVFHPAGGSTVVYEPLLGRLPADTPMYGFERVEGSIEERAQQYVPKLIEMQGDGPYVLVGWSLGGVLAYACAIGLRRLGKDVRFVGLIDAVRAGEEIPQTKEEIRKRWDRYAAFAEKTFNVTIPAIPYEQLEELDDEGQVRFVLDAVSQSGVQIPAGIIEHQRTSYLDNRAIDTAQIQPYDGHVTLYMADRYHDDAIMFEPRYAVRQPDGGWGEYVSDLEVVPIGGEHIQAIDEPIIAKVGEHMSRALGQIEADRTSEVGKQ
UniProt P9WNZ1, whole entry: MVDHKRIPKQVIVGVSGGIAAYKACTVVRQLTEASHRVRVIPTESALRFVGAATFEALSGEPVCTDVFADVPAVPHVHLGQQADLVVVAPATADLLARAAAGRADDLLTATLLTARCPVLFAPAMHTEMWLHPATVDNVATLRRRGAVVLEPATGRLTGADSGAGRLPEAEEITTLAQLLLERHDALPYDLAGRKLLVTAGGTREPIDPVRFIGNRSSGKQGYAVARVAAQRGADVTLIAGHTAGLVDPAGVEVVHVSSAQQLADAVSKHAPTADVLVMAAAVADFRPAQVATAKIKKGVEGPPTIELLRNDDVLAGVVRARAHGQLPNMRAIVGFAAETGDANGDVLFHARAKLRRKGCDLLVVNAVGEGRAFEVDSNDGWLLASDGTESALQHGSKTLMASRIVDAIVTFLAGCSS

Measurements from “University of Dundee, Small-Polar-MMV Screening Library” (2021), ChEMBL document CHEMBL3988442.

A: 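Tryptophan-tRNA ligase, Mycobacterium tuberculosis (UniProt P9WFT3). Enzyme assay of tryptophanyl-tRNA synthetase; the read-out is not stated. Tested at 10 µM. Higher most likely means stronger inhibition; the record gives no direction and few retests gave an IC50. Of about 65,000 compounds tested this way, about 64 (0.098%) reached 50% or more in at least one test.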
B: 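Enzyme assay of the thioesterase domain of polyketide synthase 13; the read-out is not stated. Target: Polyketide synthase Pks13, Mycobacterium tuberculosis (UniProt I6X8D2). Compounds at 30 µM. The record gives no direction; the compounds picked for IC50 retests had high values, so higher reads as stronger inhibition. Size under these conditions: about 67,000 compounds, about 300 of them at 50% or above in at least one test.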
C: 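Coenzyme A biosynthesis protein CoaBC, Mycobacterium tuberculosis (UniProt P9WNZ1). Enzyme assay of CoaBC with a phosphate dye (Biomol Green) read at 650 nm. Tested at 30 µM. Direction is inferred from only a few compounds that gave an IC50; most scored high, so higher reads as stronger inhibition. Most strong results did not repeat in a second test. Size under these conditions: about 67,000 compounds, about 40 of them at 50% or above in at least one test.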

Each number is a percent effect as filed. The record does not define 0% and 100%; most values in the screen are far below 50% and negative numbers occur (in some assays of this library far below -100). This is an unselected part of the compounds tested. Two or more numbers in one place are separate tests of the same structure; such repeats can differ widely. A dash means the value is not listed here; it may have been measured.

SMILES	A	B	C
CCCc1n[nH]c(C2CN(C(=O)CCCn3ccnc3)CCO2)n1 (configuration not stated)	1.577%	-34.17%	7.463%
CCc1nnsc1C(=O)N(C)Cc1nnc2n1CCC2	-3.971%	-4.034%	-0.6148%
Cc1nn(C(C)C)c(C)c1NC(=O)c1ccccc1	-1.562%	-19.91%	-3.656%
O=C(Cn1ccnc1)N1CCC(n2cc(-c3cccc(Cl)c3)nn2)CC1	6.41%	3.529%	5.651%
CCc1nnc(CN2CCC3(CCC(=O)N(C4CCCC4)C3)CC2)o1	3.046%	-4.389%	2.317%
O=C(Cn1cccn1)Nc1ccc(N2CCCCC2)cc1	0%	-12.94%	-2.785%
COC(=O)C(C)(C)NC(=O)c1cnc(Cc2ccc(F)cc2)s1	0.3621%	-	6.612%
COc1cc(CNCC2CN(C3CC3)CCO2)cc(OC)c1 (configuration not stated)	2.644%	-3.258%	3.269%
O=C1CC2(CCCCN2C(=O)c2cccs2)CN1CC1CC1 (configuration not stated)	2.488%	-24.47%	7.529%
COc1ccc2c(ccn2CC(=O)N2CCCC2Cn2cccn2)c1 (configuration not stated)	5.161%	-54.34%	-0.6424%
COc1cccc(N2CCC(CNC(=O)CN3CSCC3=O)C2)c1 (configuration not stated)	-3.385%	-45.74%	-7.438%
COc1cccc(-c2noc(-c3ccc(N4CC(N)C4)nc3)n2)c1OC	3.8%	-31.53%	-0.2571%
Cc1ccc(-c2ccc(CC3NCCN(C)C3=O)cc2)cc1 (configuration not stated)	7.246%	-1.47%	1.946%
CN(C)c1cc(C(=O)N2CCCN(c3cccnn3)CC2)ccn1	-7.888%	-25.55%	6.316%
Cc1ccc(CS(=O)(=O)NCc2ccco2)cc1	-1.2%	-26.6%	-5.72%
Cc1nn(C)c2nc(N(C)CCN(C)C3CCCC3)sc12	-1.514%	-49.85%	-
CC(Cn1cnc2cn(C)nc2c1=O)Oc1cccnc1 (configuration not stated)	-2.511%	1.038%	3.125%
CCOc1cccc(CNc2cnn(CC(C)C)c2CC)c1	-4.674%	-33.35%	3.205%
Cc1n[nH]c(C2CN(C(=O)c3ccco3)CCO2)n1 (configuration not stated)	1.377%	-31.87%	-3.374%
Cn1cc(N2C(=O)CC[C@@H]3[C@H]2CCN3CC2CCOCC2)cn1	-5.94%	-9.23%	19.36%
Cc1ccsc1CN(C)CCc1scnc1C	2.016%	19.05%	6.388%
CN(Cc1ccccc1)C(=O)CS(=O)(=O)Cc1ccc(Cl)c(Cl)c1	3.011%	9.127%	-9.287%
CC(=O)NCCC(=O)Nc1cccc(N2CCN(CC3CC3)CC2)c1	-0.6463%	-24.88%	-5.325%
CNC(=O)CN1CC[C@H]2CN(C(=O)c3cc[nH]n3)C[C@H]2C1	-12.98%	-13.34%	1.235%
Cc1nc(CN2CCN(c3ncnc4ccccc34)CC2)no1	-0.7158%	-9.374%	1.096%
CCn1cc(NC(=O)N2CCN(CCSc3ccccc3)CC2)cn1	2.039%	-7.528%	3.132%
O=C(CN(Cc1ccco1)C1CC1)Nc1ccc(Br)cn1	2.179%	-7.739%	1.966%
CCc1nnsc1C(=O)N(C)Cc1ccco1	-3.073%	-30.49%	9.054%
CCNc1ncc(C(=O)NC2CCc3ccccc3C2)cn1 (configuration not stated)	-1.41%	-15.77%	-2.211%
O=C(Cn1ccc2ccccc21)N1CCC(Oc2ncccc2Br)CC1	-5.547%	3.484%	3.594%
Cc1cc(C(=O)Nc2cccn(Cc3ccccc3)c2=O)no1	0.8541%	-17.37%	0%
Cc1nn(C)c(C)c1-c1cncc(C2CCN(S(C)(=O)=O)CC2)n1	-1.762%	-21.66%	6.736%
CCC(C)NC(=O)NCCCn1nc2ccccn2c1=O (configuration not stated)	-2.582%	8.847%	-0.8304%
CN(C)c1ccc(NC(=O)CN2CCS(=O)(=O)CC2)cn1	1.821%	-10%	8.471%
CCS(=O)(=O)c1ccc(N2CCC(NC(=O)NC(C)CO)CC2)cc1 (configuration not stated)	-4.066%	3.215%	1.623%
NC(=O)CN1CCC(C(=O)N2CCCC(OCc3cccnc3)C2)CC1 (configuration not stated)	-2.757%	-13.5%	6.14%
CC(C)(C)OC(=O)N(CCNS(=O)(=O)N1CCOCC1)C1CC1	0%	-32.7%	3.899%
CCc1nc(C2CCCN(C(=O)C3=NN(CC)C(=O)CC3)C2)no1 (configuration not stated)	1.192%	7.87%	-0.6098%
Cc1cc(C)n(CC(C)NCc2nc(-c3cccnc3)no2)n1 (configuration not stated)	5.983%	-27.51%	5.102%
CCN1CCN(C(=O)NCc2ccccc2Cn2cncn2)CC1	18.43%	-17.86%	0.6889%
O=C1N(Cc2cccnc2)C[C@H]2CN(S(=O)(=O)c3ccccc3)CCN12	-2.365%	-4.38%	-33.6%
COc1c(C)cnc(CNC(=O)c2cc(C)nc3c2c(C)nn3C)c1C	-3.159%	-9.407%	4.365%
CC(c1ccon1)N(C)C(=O)C1CCN(CC(N)=O)CC1 (configuration not stated)	3.974%	-7.92%	-0.4914%
CCS(=O)(=O)CC(=O)NC(C)c1ccc(OCCC(C)C)cc1 (configuration not stated)	0.9332%	-3.842%	-0.3468%
Cc1ncccc1OC1(C(=O)NCCC2CCCN2C)CCNCC1 (configuration not stated)	26.82%	2.743%	-11.16%
COc1ccccc1CN1CC(O)CN(C(=O)OCC(C)C)CC1=O (configuration not stated)	-	23.22%	-0.1227%
CC1=N[C@@]2(CC[C@@H]3CN(CC(C)C)C[C@@H]32)C(=O)N1	3.738%	-	2.917%
Cc1cnn(C2CN(CC(=O)NCCOc3ccccc3)C2)c1	-3.241%	-13.27%	2.999%
CC1Cc2ccccc2N1C(=O)Cn1nc(-c2cccs2)ccc1=O (configuration not stated)	-5.543%	-6.727%	0%
CN1CCN(C(=O)c2cn(Cc3ccccc3)c3ncccc23)CC1	-	-	2.913%
CC(C)Nc1ccnc(-c2ccnc3c2ccn3C)n1	5.869%	15.22%	-1.22%
CC(=O)N1CCCN(C(=O)NC(C)Cn2ccnc2)CC1 (configuration not stated)	1.534%	-66.58%	-5.223%
CN(C)C(=O)C1CCCN1c1ncnc2ccsc12 (configuration not stated)	0.1874%	-28.2%	4.862%
CC(C)CC(=O)NS(=O)(=O)c1ccc2c(c1)OCCCO2	1.355%	-16.03%	2.216%
Cc1nnsc1C(=O)N1CCCCC1c1cc2nc(C)c(C)c(O)n2n1 (configuration not stated)	-3.513%	14.89%	8.392%
Cn1cc(CN2CCC3(CC2)CCN(C(=O)c2cscn2)CC3)cn1	-2.102%	7.288%	-2.836%
CC(C)N1CC2(CCC1=O)CCN(c1ccnc3ccccc13)CC2	0.3661%	-5.684%	11.64% and 32.42%
COCC(C)NC(=O)N(C)Cc1cc(C)on1 (configuration not stated)	-1.257%	-24.81%	-12.81%
CN(Cc1cccs1)Cc1nnsc1Cl	-1.069%	-18.37%	-1.05%
Cc1cccc(CN(Cc2ccccn2)S(=O)(=O)N(C)C(C)C)c1	2.852%	-39.38%	-0.4592%
O=C(c1ccc(-c2cn[nH]c2)nc1)N1CCC(N2CCOCC2)CC1	0.9167%	-23.5%	6.397%
CCOCC1CN(Cc2ccc(OC)cc2)Cc2nn(CC3CC3)cc21 (configuration not stated)	-0.8299%	4.254%	7.519%
Cc1nc(CN2CCO[C@H]3CN(C(=O)c4ccncc4)C[C@H]32)cs1	-2.876%	-11.49%	3.268%
CN1C[C@@H](C(=O)NC(C)(C)C)[C@@]2(COc3ccc(F)cc3C2=O)C1	6.069%	13.04%	-8.631%
Cc1ccc(CN2CCN(Cc3ccc(N(C)C)nc3)CC2=O)cc1C	-3.382%	-5.425%	5.411%
O=C(NCCn1nc2ccccn2c1=O)c1cccc2[nH]ncc12	-22.79%	-12.11%	5.44%
O=C(C(c1ccccc1)N1CCc2cncnc2C1)N1CCCCC1 (configuration not stated)	0.4955%	0.4614%	-6.517%
Cc1nn(C)c(C)c1CN(C)CC1(O)CCCN(C)C1 (configuration not stated)	-1.492%	-6.714%	1.139%
CC(Cn1cccn1)NC(=O)NCc1cccnc1 (configuration not stated)	5.893%	-7.169%	2.089%
CN1CCOC(CNCC(=O)NCCc2ccc(F)cc2)C1 (configuration not stated)	-2.352%	-32.31%	0.8917%

Repeated from the top, 5 entries:

* CCCc1n[nH]c(C2CN(C(=O)CCCn3ccnc3)CCO2)n1 (configuration not stated) | A: 1.577%; B: -34.17%; C: 7.463%
* CCc1nnsc1C(=O)N(C)Cc1nnc2n1CCC2 | A: -3.971%; B: -4.034%; C: -0.6148%
* Cc1nn(C(C)C)c(C)c1NC(=O)c1ccccc1 | A: -1.562%; B: -19.91%; C: -3.656%
* O=C(Cn1ccnc1)N1CCC(n2cc(-c3cccc(Cl)c3)nn2)CC1 | A: 6.41%; B: 3.529%; C: 5.651%
* CCc1nnc(CN2CCC3(CCC(=O)N(C4CCCC4)C3)CC2)o1 | A: 3.046%; B: -4.389%; C: 2.317%